Laboratory results as given in article PMC3154933, “The Nucleotide Exchange Factor Ric-8A Is a Chaperone for the Conformationally Dynamic Nucleotide-Free State of Gαi1” (PLoS ONE, 2011).
Results are given in words; binding and its absence hold for the method and conditions named. Some results given as binding are weak or reduced against the parent protein; the word gives no strength.

Chains of the proteins cited; added tags and fusions are not shown. Lines headed by an entry give the natural chain unless they say otherwise; changes in a name come on top.
UniProt P10824: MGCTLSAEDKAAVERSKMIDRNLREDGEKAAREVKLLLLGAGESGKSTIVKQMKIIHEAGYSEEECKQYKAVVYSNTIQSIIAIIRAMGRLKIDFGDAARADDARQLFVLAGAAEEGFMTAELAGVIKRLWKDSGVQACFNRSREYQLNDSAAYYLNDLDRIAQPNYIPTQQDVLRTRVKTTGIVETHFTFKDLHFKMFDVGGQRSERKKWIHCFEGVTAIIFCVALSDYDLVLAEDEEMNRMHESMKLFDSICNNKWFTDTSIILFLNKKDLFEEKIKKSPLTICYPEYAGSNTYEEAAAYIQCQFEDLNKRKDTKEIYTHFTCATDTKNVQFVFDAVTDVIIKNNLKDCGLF

What was measured:
[1] = target: T1, Ric-8AΔC492 (rat Ric-8A residues 1–492) (rat) (UniProt Q80ZG1); experiment: differential scanning calorimetry; 25 mM PIPES pH 7.2, 150 mM NaCl, 1 mM TCEP; 5.1 µM complex; 1°C/min from 20 to 70°C; both purified
T1 sequence: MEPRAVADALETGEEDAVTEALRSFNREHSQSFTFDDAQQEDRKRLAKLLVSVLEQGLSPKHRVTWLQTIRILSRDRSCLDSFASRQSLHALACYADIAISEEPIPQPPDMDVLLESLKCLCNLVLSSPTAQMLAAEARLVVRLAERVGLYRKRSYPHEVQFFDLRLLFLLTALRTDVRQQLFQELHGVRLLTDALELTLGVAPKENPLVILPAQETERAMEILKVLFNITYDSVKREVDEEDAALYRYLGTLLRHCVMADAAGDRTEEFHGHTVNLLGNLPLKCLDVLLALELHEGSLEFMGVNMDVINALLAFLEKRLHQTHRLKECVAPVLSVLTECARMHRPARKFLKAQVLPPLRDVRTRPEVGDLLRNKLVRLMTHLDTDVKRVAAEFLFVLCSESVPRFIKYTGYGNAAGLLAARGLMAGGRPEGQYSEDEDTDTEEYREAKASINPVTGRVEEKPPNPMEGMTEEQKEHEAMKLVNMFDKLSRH

[2] = target: T1, Ric-8AΔC492 (rat Ric-8A residues 1–492) (rat); experiment: 1H-15N TROSY-HSQC NMR of the complex; [15N]Gαi1:Ric-8A against [15N]Gαi1•GDP, 250 µM, 20 mM sodium phosphate pH 6.8, 75 mM NaCl, 2 mM DTT, 25°C; both purified
[3] = target: T1, Ric-8AΔC492 (rat Ric-8A residues 1–492) (rat); experiment: HDX-MS; whole-protein exchange; ten-fold dilution of 1 mg/ml Gαi1•GDP or Ric-8A:Gαi1[ ] into D2O, 20 mM sodium phosphate pH 6.8, 100 mM NaCl, 1 mM DTT; ESI-TOF; both purified
[4] = target: T1, Ric-8AΔC492 (rat Ric-8A residues 1–492) (rat); experiment: limited proteolysis (trypsin protection); 50 µM samples, TPCK-trypsin at a 1:1000 molar ratio, 4°C, 50 mM Tris-HCl pH 8.0, 150 mM NaCl, 2 mM DTT; SDS-PAGE and mass spectrometry; both purified
[5] = target: T1, Ric-8AΔC492 (rat Ric-8A residues 1–492) (rat); experiment: SEC; gel filtration of the NMR sample after data collection (data not shown); complex prepared from equimolar proteins with immobilised alkaline phosphatase and run on tandem Superdex 200/75 in 20 mM Tris pH 8.0, 150 mM NaCl, 2 mM DTT; both purified

Measured: binding

W258A-Gαi1 (non-myristoylated rat Gαi1, Trp 258 to Ala) (from UniProt P10824 1-354)
binds: all assays above
